Patent publication US20030219858A1
These are yes or no findings as the source states them, for the method shown. In cells and extracts the contact can be indirect. Some entries that bind do so weakly or less than the wild type. Sequences can lack the tags named with a protein.

Chains of the proteins cited; added tags and fusions are not shown. Lines headed by an entry give the natural chain unless they say otherwise; changes in a name come on top.
UniProt Q9UHC3: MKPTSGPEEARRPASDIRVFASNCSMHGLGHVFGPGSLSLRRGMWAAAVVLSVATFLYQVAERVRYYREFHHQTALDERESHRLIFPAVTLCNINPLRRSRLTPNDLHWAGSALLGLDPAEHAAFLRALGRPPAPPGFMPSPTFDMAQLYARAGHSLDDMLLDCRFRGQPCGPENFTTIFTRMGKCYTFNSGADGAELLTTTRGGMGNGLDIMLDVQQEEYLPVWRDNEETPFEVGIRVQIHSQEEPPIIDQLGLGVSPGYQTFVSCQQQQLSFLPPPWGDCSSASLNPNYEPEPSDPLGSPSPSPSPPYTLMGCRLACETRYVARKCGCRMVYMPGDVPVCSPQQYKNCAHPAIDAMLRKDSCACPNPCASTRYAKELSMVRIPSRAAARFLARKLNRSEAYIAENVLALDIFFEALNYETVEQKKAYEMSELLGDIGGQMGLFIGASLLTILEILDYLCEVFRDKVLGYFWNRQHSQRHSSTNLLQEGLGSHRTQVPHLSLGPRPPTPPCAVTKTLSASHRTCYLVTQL
UniProt Q16515: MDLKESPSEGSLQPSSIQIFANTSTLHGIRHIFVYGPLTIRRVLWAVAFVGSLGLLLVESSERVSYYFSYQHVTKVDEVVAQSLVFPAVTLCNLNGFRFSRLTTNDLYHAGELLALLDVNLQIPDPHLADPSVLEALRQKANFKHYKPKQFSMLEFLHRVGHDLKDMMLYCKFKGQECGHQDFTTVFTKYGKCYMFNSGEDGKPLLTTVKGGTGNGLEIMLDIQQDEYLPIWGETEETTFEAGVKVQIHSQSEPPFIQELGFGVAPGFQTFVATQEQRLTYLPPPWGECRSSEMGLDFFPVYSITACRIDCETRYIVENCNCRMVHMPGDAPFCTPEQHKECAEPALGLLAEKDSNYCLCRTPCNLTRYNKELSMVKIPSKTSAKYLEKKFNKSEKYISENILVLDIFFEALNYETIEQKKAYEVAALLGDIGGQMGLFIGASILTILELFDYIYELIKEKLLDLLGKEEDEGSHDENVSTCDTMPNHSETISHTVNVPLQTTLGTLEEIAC

Tests used:
[1] = molecular target: T1, ASIC3-N_His6 (human ASIC3 with N-terminal His6 tag) (human) (UniProt Q9UHC3); assay: co-purification and Western blot, subunits coexpressed in Xenopus oocytes or HEK293 cells
T1 sequence: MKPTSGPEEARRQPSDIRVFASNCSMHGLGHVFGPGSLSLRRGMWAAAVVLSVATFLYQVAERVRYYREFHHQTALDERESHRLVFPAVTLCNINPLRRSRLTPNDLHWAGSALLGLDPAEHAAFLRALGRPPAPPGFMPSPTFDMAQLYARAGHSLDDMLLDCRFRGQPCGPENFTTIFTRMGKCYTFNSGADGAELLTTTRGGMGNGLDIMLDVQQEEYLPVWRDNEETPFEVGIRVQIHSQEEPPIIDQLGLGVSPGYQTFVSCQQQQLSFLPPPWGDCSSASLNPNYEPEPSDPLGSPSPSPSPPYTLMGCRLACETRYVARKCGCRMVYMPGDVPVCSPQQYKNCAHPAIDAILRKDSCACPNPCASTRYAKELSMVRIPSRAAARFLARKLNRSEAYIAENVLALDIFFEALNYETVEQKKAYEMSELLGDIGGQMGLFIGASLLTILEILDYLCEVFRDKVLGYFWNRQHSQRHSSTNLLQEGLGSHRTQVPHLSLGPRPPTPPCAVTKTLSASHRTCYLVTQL

[2] = molecular target: T1, ASIC3-N_His6 (human ASIC3 with N-terminal His6 tag) (human); assay: co-purification on Ni-NTA resin from Triton X-100 lysates of co-expressing oocytes or HEK 293 cells; Western blot with anti-GFP or anti-His6
[3] = molecular target: T2, ASIC3-C_FLAG (human ASIC3 with C-terminal FLAG tag) (human) (UniProt Q9UHC3); assay: co-immunoprecipitation on antiFLAG M2 immunoaffinity resin from Triton X-100 lysates of co-expressing oocytes or HEK 293 cells; Western blot with anti-GFP or anti-His6
T2 sequence: T1 sequence

| binding [1] | binding [2] | binding [3] | Substance |
| --- | --- | --- | --- |
| binds | binds | – | ASIC2A-N_GFP (human ASIC2A with N-terminal GFP tag) (from UniProt Q16515 1-512) (receptor) |
| – | – | binds | ASIC2A-N_His6 (human ASIC2A with N-terminal His6 tag) (from UniProt Q16515 1-512) (receptor) |
